Results deposited as PubChem BioAssay AID602196 (INSERM, 2012)
Purpose: 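Genes whose knock-down alters cisplatin killing of lung cancer cells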. System: human A549 lung cancer cells. Reagent: siRNA pair against human genes. Time to read-out: 48 h transfection before cisplatin; time from cisplatin to read-out not stated. Challenge: cisplatin at a dose killing half of control-siRNA cells; exact dose and duration not given. Read-out: 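Shift in cisplatin death relative to control siRNA, from -50 (all cells die) to +50 (no cells die); siRNAs harmful on their own scored 0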. Reading the numbers: two-siRNA summed score (-2 to +2): higher = both siRNAs protect from cisplatin killing; -2 means both sensitise; mean protection from cisplatin (shift in death) and protection from cisplatin (shift in death), siRNA C and protection from cisplatin (shift in death), siRNA D: higher = protection from cisplatin killing. Call rule: 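siRNAs harmful alone (LDH or WST-1) get 0; others get +1 for less and -1 for more cisplatin killing; genes are active when the two siRNAs give the same sign, summing to ±2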. Meaning of the calls: active = both siRNAs shift cisplatin killing the same way; inactive = no consistent shift, or siRNA harmful alone.
This is one part, drawn at random, of about 23,000 deposited reagents. Of all reagents, 455 (2%) are marked active. 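Active includes both protection and sensitisation; some change values fall well beyond the stated -50 to +50 range.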 The record does not give: the amount of reagent.

| two-siRNA summed score (-2 to +2) | mean protection from cisplatin (shift in death) (%) | protection from cisplatin (shift in death), siRNA C (%) | protection from cisplatin (shift in death), siRNA D (%) | call | Gene |
| --- | --- | --- | --- | --- | --- |
| -1 | -10.3 | -12.9 | -7.7 | inactive | HOXC13 |
| 1 | 15.1 | 19 | 11.3 | inactive | UTS2 |
| 0 | 6.2 | 15.2 | -2.7 | inactive | KRTAP3-3 |
| 0 | -3.9 | -4.8 | -3 | inactive | FPGS |
| 0 | -0.8 | 2.5 | -4.2 | inactive | NUDT4 |
| 1 | 15.3 | 20.4 | 10.2 | inactive | LOC400992 |
| 0 | 19.4 | -1.1 | 39.9 | inactive | LOC145853 |
| 1 | 16.8 | 21.9 | 11.7 | inactive | LOC440728 |
| 0 | -4.2 | -9.4 | 1 | inactive | CCDC60 |
| 1 | 9.8 | 9.3 | 10.2 | inactive | LOC440774 |
| 0 | 15.4 | 27.3 | 3.4 | inactive | LOC392554 |
| 0 | 2.3 | 9 | -4.5 | inactive | CHMP3 |
| -1 | -16.9 | -28 | -5.7 | inactive | SENP2 |
| 0 | 2.3 | 1.7 | 2.9 | inactive | DPYSL4 |
| 0 | 6.7 | 16.2 | -2.7 | inactive | KIAA1614 |
| -1 | -10.3 | -2 | -18.6 | inactive | PCDHA9 |
| 1 | 8.1 | -1 | 17.1 | inactive | OR10G4 |
| 0 | -19.2 | -28.5 | -9.8 | inactive | AGPAT4-IT1 |
| 0 | 6.4 | 13.8 | -1 | inactive | KCTD16 |
| -1 | -10.6 | -11.2 | -10 | inactive | SNX5 |
| 0 | 3 | -10.2 | 16.1 | inactive | COQ9 |
| 0 | 23.3 | 23.7 | 22.9 | inactive | LOC440264 |
| 0 | 24.6 | 48.5 | 0.7 | inactive | TEX44 |
| 0 | 8.6 | 14 | 3.2 | inactive | LOC440142 |
| 0 | 10.5 | 14.8 | 6.1 | inactive | LOC440868 |
| -1 | -5.1 | 9.5 | -19.7 | inactive | PBOV1 |
| 0 | 1.4 | -1.6 | 4.5 | inactive | USP44 |
| 1 | 4.7 | -13.1 | 22.5 | inactive | ASPHD2 |
| 1 | 13.2 | 10.8 | 15.5 | inactive | GPCPD1 |

Entries above whose target name starts with S or s:
| two-siRNA summed score (-2 to +2) | mean protection from cisplatin (shift in death) (%) | protection from cisplatin (shift in death), siRNA C (%) | protection from cisplatin (shift in death), siRNA D (%) | call | Gene |
| --- | --- | --- | --- | --- | --- |
| -1 | -16.9 | -28 | -5.7 | inactive | SENP2 |
| -1 | -10.6 | -11.2 | -10 | inactive | SNX5 |

Continued:
| two-siRNA summed score (-2 to +2) | mean protection from cisplatin (shift in death) (%) | protection from cisplatin (shift in death), siRNA C (%) | protection from cisplatin (shift in death), siRNA D (%) | call | Gene |
| --- | --- | --- | --- | --- | --- |
| 0 | 13.7 | 19.7 | 7.7 | inactive | PTRH1 |
| 0 | 1.6 | 3 | 0.2 | inactive | OR8S1 |
| 1 | 8.4 | 4.4 | 12.4 | inactive | OR6N1 |
| 0 | 9.1 | 3.9 | 14.4 | inactive | BKGD |
| 0 | 3.7 | 1.7 | 5.8 | inactive | TINF2 |
| 0 | 0.1 | -4 | 4.1 | inactive | SH2B3 |
| 0 | 0.6 | 2.9 | -1.7 | inactive | LOC203076 |
| 0 | 4.3 | -2.3 | 10.9 | inactive | EFR3B |
| 0 | 2.4 | 3.8 | 0.9 | inactive | MRS2 |
| 0 | 0.1 | -0.4 | 0.6 | inactive | AAK1 |
| 1 | 3.8 | -3 | 10.6 | inactive | MAPK15 |
| 0 | -5.8 | -13.2 | 1.7 | inactive | INTS3 |
| -1 | -16.3 | -21.1 | -11.4 | inactive | LOC387697 |
| 0 | 6.6 | 5 | 8.1 | inactive | LOC439998 |
| 0 | 8.5 | 18.4 | -1.4 | inactive | TLR5 |
| 1 | 6.5 | 2.4 | 10.5 | inactive | CDH8 |
| -1 | -6.2 | -0.3 | -12.2 | inactive | GRIN2D |
| 0 | -2.3 | 5 | -9.7 | inactive | KANK2 |
| 0 | -5.7 | -10.3 | -1 | inactive | IQSEC1 |
| 0 | 3.1 | -2.5 | 8.8 | inactive | MCRS1 |
| 0 | 7.9 | 6.9 | 8.9 | inactive | ZNF43 |
| 0 | 14.5 | 18.3 | 10.8 | inactive | LOC390669 |
| 0 | 12.3 | 10.6 | 14.1 | inactive | LRRC37BP1 |
| -1 | -13.4 | -18.6 | -8.2 | inactive | PIEZO1-AS1 |
| 0 | 11.4 | 10.3 | 12.5 | inactive | RFTN1 |
| 0 | -0.9 | 1.6 | -3.4 | inactive | C16orf89 |
| 0 | -0.3 | -2.8 | 2.3 | inactive | LOC442499 |
| 0 | 10.3 | 8 | 12.5 | inactive | LOC391053 |
